Patent US20250326858A1
These are yes or no findings as the source states them, for the method shown. Some binding calls cover weakened binding; strength is not graded here. For some assays here: Sequences can lack the tags named with a protein.

What was measured:
[1] = biological target: T1, Recombinant Rat TPBG/5T4 with 6His-SUMO, N-terminus tags (rat) (UniProt Q5PQV5); test: ELISA (antigen coated) and Octet (antibody on Protein A biochip, antigen in solution)
T1 sequence (looked up): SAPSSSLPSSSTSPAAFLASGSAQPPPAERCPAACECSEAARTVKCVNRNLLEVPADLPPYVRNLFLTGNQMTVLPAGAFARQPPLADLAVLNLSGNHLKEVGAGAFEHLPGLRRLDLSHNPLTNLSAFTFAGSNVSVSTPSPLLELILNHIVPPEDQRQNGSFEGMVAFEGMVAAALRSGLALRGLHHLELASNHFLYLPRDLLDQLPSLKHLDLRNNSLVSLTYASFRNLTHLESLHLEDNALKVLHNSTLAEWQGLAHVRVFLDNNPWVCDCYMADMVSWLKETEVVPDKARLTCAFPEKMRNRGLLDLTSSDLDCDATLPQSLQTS

[2] = biological target: T2, recombinant cyno 5T4-Fc (cynomolgus monkey) (UniProt Q4R8Y9); test: as above
T2 sequence: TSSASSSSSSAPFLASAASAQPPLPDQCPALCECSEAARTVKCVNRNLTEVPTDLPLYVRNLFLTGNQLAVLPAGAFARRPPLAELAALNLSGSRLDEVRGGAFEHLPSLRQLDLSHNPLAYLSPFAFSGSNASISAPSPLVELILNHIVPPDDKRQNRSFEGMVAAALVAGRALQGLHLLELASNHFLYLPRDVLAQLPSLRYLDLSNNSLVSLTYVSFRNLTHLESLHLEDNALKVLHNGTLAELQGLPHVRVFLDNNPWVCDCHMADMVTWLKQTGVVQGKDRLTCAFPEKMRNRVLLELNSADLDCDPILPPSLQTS

[3] = biological target: T3, human 5T4, Internal (Lot 20-019-62) (human) (UniProt Q13641); test: Octet (BLI), monovalent format: antibody on AHC sensor, human 5T4 in solution; internal lot
T3 sequence: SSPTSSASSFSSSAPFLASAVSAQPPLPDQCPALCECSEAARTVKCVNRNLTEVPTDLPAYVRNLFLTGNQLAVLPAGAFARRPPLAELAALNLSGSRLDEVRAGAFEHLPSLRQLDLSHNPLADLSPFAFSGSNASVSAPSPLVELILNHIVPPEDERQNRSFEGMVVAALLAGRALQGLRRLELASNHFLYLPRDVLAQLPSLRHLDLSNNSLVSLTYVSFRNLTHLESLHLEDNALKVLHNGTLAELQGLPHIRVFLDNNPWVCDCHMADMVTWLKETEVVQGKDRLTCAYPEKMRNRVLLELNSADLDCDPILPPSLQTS

B1: mAbA15 (antibody, human IgG1, kappa, V domains shown)
VH: EVQLVESGGGLVQPGGSLRLSCAASGFTFSSYYIHWVRQAPGKGLEWVAYITSTGSYTEYADSVKGRFTISADTSKNTAYLQMNSLRAEDTAVYYCARYDRSTRYSGLDYWGQGTLVTVSS
VL: DIQMTQSPSSLSASVGDRVTITCRASQSVSSAVAWYQQKPGKAPKLLIYSASSLYSGVPSRFSGSRSGTDFTLTISSLQPEDFATYYCQQAYATPVTFGQGTKVEIKR
Question: B1 was tested. Which binding [1] did it give?
Answer: Its binding is “binds”.

Question: What about the binding [2] of the same binder?
Answer: Its binding is “binds”.

Question: And the binding [3]?
Answer: The binding was “binds”.

B2: mAbA17 (antibody, human IgG1, kappa, V domains shown)
VH: EVQLVESGGGLVQPGGSLRLSCAASGFTFSRYWIHWVRQAPGKGLEWVAAIFPYSGSTLYADSVKGRFTISADTSKNTAYLQMNSLRAEDTAVYYCARSPSRSILPSGLDYWGQGTLVTVSS
VL: DIQMTQSPSSLSASVGDRVTITCRASQSVSSAVAWYQQKPGKAPKLLIYSASSLYSGVPSRFSGSRSGTDFTLTISSLQPEDFATYYCQQGDGSPYTFGQGTKVEIKR
Question: With B2 as the binder, how does the binding [1] read?
Answer: The binding was “binds”.

Question: And the binding [2]?
Answer: Its binding is “binds”.

Question: And the binding [3]?
Answer: Its binding is “binds”.

B3: mAbA4 (antibody, human IgG1, kappa, V domains shown)
VH: EVQLVESGGGLVQPGGSLRLSCAASGFTFSRYYIHWVRQAPGKGLEWVAFISPGGSYTYYADSVKGRFTISADTSKNTAYLQMNSLRAEDTAVYYCAREYYSMGVLDYWGQGTLVTVSS
VL: DIQMTQSPSSLSASVGDRVTITCRASQSVSSAVAWYQQKPGKAPKLLIYSASSLYSGVPSRFSGSRSGTDFTLTISSLQPEDFATYYCQQAYESPYTFGQGTKVEIKR
Question: B3 was tested. Which binding [1] did it give?
Answer: Its binding is “binds”.

Question: And the binding [2]?
Answer: The binding was “binds”.
